Reference: the supplement of paper PMC12009310
Counter-ions that a name gives are not always drawn. ± gives the standard deviation of the averaged measurements. The list shows a part of the results. Plates or batches differ in their baseline, so values are only roughly comparable.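 The cells are a mouse kidney inner medullary collecting duct line, silenced either for the ciliary gene Rpgrip1l or with a non-targeting control siRNA.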

Key:
[1] = system: mIMCD3; assay: robust z score of cell number vs plate controls; higher = more cells (less cytotoxic); conditions: 10 µM, 48 h
[2] = system: mIMCD3; assay: robust z score of cilia incidence (% cells with single cilium) vs plate controls; higher = more ciliated cells; conditions: 10 µM; 48 h; siRNA: siScr
[3] = system: mIMCD3; assay: robust z score of cilia incidence (% cells with single cilium) vs plate controls; higher = more ciliated cells (rescue of cilia loss); conditions: 10 µM; 48 h; siRNA: siRpgrip1l

SMILES	robust z score of cell number ([1]; siRNA: siRpgrip1l)	robust z score of cell number ([1]; siRNA: siScr)	robust z score of cilia incidence [2]	robust z score of cilia incidence [3]
C[C@H](NC[C@H](O)CP(=O)(O)CC1CCCCC1)c1ccc(Cl)c(Cl)c1	-11.3 ± 5.7	1.63 ± 0.56	0.0645 ± 0.67	-16.1 ± 2.3
O=c1c(O)c(-c2ccc(O)cc2)oc2cc(O)cc(O)c12 [Kaempferol]	-41.3 ± 56	0.95 ± 1.4	-0.789 ± 0.11	-4.88 ± 2.1
COCCNC(=O)COc1ccc(OCCNC[C@H](O)COc2ccccc2)cc1 [ZD 7114 hydrochloride]	-3.29 ± 2.5	-2.86 ± 4.7	-4.2 ± 5.2	-11.3 ± 4.3
CC(C)NCCN(C(C)C)S(=O)(=O)c1ccc(Cl)cc1Cl	-18.1 ± 17	-19.6 ± 1.9	-36 ± 5.6	-31.4 ± 3.1
NCC(O)(CS(=O)(=O)O)c1ccc(Cl)cc1 (centres undefined) [2-Hydroxysaclofen]	5.47 ± 7.5	8.47 ± 5.3	2.68 ± 1.6	-6.41 ± 3.6
NS(=O)(=O)C#Cc1ccccc1 [Pifithrin->m]	-32.9 ± 10	-144 ± 110	-56.1 ± 24	-52.3 ± 17
CC[C@]1(O)C[C@@H]2CN(CCc3c([nH]c4ccccc34)[C@@](C(=O)OC)(c3cc4c(cc3OC)N(C)[C@H]3[C@@](O)(C(=O)OC)[C@H](OC(C)=O)[C@]5(CC)C=CCN6CC[C@]43[C@@H]65)C2)C1 [Vinblastine sulfate]	-23.3 ± 16	-1.95 ± 0.8	2.62 ± 2.4	-7.82 ± 2.4
COc1ccc([C@@H]2Sc3ccccc3N(CCN(C)C)C(=O)[C@@H]2OC(C)=O)cc1 [Diltiazem hydrochloride]	-9.98 ± 1.5	-12.6 ± 11	0.401 ± 0.18	-7.08 ± 5.2
C/C=C1\C(=O)C[C@H]2[C@@H]3CCC4=CC(=O)CC[C@]4(C)[C@H]3CC[C@]12C [Guggulsterone]	-12.2 ± 4.8	-22 ± 18	-5.94 ± 4.9	-32 ± 18
CC(=O)O[C@H]1C(=O)[C@@]2(C)[C@H]([C@H](OC(=O)c3ccccc3)[C@]3(O)C[C@H](OC(=O)[C@H](O)[C@@H](NC(=O)c4ccccc4)c4ccccc4)C(C)=C1C3(C)C)[C@]1(OC(C)=O)CO[C@@H]1C[C@@H]2O [Taxol]	-47.8 ± 39	-18.1 ± 3.8	-21.5 ± 0.61	-37.4 ± 7.4
O=C1C=CC(=O)C2=C1C1c3ccccc3C2c2ccccc21	-2.49 ± 0.7	1.83 ± 1.5	3.01 ± 2.4	-12.9 ± 9.3
O=C(O)c1c(Sc2ccccc2)c2cc(Cl)ccc2n1Cc1ccc(Cl)cc1	-1.82 ± 2.1	-0.205 ± 2	-0.83 ± 0.37	-15.7 ± 9.2
Cc1ccc(NC(=O)c2cccc(N(C)C)c2)cc1NC(=O)c1ccc(O)cc1	-50.5 ± 10	2.52 ± 3.5	-2.07 ± 3.1	-22.2 ± 8.3
COc1cc(SC)ccc1C(=O)N1CCC(Cc2ccccc2)CC1	-21.5 ± 5.5	-107 ± 85	-18.6 ± 2.3	-31.7 ± 7.3
NC[C@@H]1O[C@H](C23CC4CC(CC(C4)C2)C3)Cc2c1ccc(O)c2O	-42.9 ± 39	-44.2 ± 29	-108 ± 78	-66.2 ± 46
CCN(CC)CCCC(C)Nc1nc(C)cc(Nc2ccc3nc(C)cc(N)c3c2)n1 (centres undefined)	-0.795 ± 1.4	-0.789 ± 4.1	-2.22 ± 0.28	-8.76 ± 9.3

Part of the list above in another layout.

| SMILES | robust z score of cell number ([1]; siRNA: siRpgrip1l) | robust z score of cell number ([1]; siRNA: siScr) | robust z score of cilia incidence [2] | robust z score of cilia incidence [3] |
| --- | --- | --- | --- | --- |
| NCC(O)(CS(=O)(=O)O)c1ccc(Cl)cc1 (centres undefined) [2-Hydroxysaclofen] | 5.47 ± 7.5 | 8.47 ± 5.3 | 2.68 ± 1.6 | -6.41 ± 3.6 |
| NS(=O)(=O)C#Cc1ccccc1 [Pifithrin->m] | -32.9 ± 10 | -144 ± 110 | -56.1 ± 24 | -52.3 ± 17 |
